Experimental findings from paper PMC8891551 are described below.

This assay concerns the target T1, Toll-like receptor 13 (mouse (endogenous in C2C12)) (UniProt Q6R5N8).
T1 sequence: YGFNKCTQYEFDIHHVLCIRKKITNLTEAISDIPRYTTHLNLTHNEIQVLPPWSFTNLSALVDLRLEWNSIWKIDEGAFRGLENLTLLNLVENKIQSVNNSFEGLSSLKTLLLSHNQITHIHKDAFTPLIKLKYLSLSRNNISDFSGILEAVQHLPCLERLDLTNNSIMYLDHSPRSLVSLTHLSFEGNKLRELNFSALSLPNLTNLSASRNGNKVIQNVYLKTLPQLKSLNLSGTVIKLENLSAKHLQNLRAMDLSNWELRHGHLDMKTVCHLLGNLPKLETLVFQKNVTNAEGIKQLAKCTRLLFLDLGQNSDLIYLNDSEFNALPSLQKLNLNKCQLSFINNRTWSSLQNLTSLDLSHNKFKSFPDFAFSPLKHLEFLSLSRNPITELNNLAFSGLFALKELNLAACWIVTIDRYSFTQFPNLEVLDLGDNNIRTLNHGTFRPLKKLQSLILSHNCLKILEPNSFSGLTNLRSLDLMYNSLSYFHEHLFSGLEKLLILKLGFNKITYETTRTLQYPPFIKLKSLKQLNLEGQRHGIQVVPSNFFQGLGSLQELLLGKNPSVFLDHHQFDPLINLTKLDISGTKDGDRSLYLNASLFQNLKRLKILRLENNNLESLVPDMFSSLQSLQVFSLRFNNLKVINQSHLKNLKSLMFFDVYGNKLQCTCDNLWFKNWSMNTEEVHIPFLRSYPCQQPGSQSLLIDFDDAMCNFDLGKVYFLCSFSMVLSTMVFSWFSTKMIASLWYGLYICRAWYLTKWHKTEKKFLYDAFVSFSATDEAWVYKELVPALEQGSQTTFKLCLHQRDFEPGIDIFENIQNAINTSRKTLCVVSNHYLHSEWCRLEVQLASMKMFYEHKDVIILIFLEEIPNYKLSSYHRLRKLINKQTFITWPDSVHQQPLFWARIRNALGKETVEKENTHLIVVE
Description: co-IP; 4 ug anti-TLR13 or anti-IRF3 antibody added to C2C12 lysates, overnight at 4°C with phosphatase and protease inhibitors; Protein A/G Plus beads 2 h; western blotting. In general terms: Immunoblotting shows a protein as a band on a membrane.

No constants are given. Whether binding was seen depends on the method and setting. Binding seen in cells or lysates may run through a third protein. Some results given as binding are weak or reduced against the parent protein; the word gives no strength.

B1: Interferon regulatory factor 3 (protein, UniProt P70671 1-419)
chain: METPKPRILPWLVSQLDLGQLEGVAWLDESRTRFRIPWKHGLRQDAQMADFGIFQAWAEASGAYTPGKDKPDVSTWKRNFRSALNRKEVLRLAADNSKDPYDPHKVYEFVTPGARDFVHLGASPDTNGKSSLPHSQENLPKLFDGLILGPLKDEGSSDLAIVSDPSQQLPSPNVNNFLNPAPQENPLKQLLAEEQWEFEVTAFYRGRQVFQQTLFCPGGLRLVGSTADMTLPWQPVTLPDPEGFLTDKLVKEYVGQVLKGLGNGLALWQAGQCLWAQRLGHSHAFWALGEELLPDSGRGPDGEVHKDKDGAVFDLRPFVADLIAFMEGSGHSPRYTLWFCMGEMWPQDQPWVKRLVMVKVVPTCLKELLEMAREGGASSLKTVDLHISNSQPISLTSDQYKAYLQDLVEDMDFQATGNI
As to B1, the binding result is “binds”.
